In PubChem BioAssay AID488840 (Broad Institute, 2010):
Among all 1,400 compounds or so, about 45 (3%) were called active.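 How the source made its calls: active means half-maximal dose of signal decrease from fit no higher than ten times the top valid tested dose; inconclusive means fit invalid, or curve flat with 30 to 70% inhibition; inactive means the rest.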 The list shows a part of the results. Measured potencies and affinities stand elsewhere.

Protein sequences, listed by entry. Tags and fused reporters are not part of them. Lines headed by an entry give the natural chain unless they say otherwise; changes in a name come on top.
UniProt O75164: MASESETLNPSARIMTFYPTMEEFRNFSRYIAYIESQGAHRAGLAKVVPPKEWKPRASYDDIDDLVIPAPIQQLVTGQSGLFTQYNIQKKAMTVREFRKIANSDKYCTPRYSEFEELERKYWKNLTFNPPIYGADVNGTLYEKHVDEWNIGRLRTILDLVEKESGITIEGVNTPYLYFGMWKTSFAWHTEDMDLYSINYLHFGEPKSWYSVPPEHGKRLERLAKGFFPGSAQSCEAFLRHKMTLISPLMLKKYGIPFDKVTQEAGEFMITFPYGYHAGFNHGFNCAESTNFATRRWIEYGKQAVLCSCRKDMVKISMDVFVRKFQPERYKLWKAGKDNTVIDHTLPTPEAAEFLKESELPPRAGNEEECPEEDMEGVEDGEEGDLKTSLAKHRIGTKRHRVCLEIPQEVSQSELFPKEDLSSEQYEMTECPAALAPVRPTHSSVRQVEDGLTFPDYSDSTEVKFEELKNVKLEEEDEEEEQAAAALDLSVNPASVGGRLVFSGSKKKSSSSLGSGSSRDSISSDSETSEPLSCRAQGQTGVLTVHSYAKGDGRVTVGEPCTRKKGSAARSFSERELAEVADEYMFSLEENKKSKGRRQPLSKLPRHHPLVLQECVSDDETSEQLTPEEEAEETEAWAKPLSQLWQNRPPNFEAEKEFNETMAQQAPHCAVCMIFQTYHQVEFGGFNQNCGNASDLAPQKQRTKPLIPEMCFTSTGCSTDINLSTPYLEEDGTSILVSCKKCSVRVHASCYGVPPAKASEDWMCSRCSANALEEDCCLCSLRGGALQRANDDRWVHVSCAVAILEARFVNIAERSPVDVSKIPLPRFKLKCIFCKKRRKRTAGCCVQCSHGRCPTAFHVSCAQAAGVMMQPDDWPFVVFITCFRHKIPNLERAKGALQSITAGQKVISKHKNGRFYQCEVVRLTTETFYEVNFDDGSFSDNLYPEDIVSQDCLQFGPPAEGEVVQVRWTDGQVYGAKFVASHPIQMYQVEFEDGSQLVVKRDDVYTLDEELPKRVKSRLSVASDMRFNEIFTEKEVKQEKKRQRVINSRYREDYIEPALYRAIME

target: Lysine-specific demethylase 4A (Homo sapiens) (UniProt O75164); experiment: inhibition of JMJD2A H3K9me3 demethylation – biochemical, DELFIA europium, cherry-picked samples, selectivity assay for GASC-1 inhibitor project, dose response (AID 488840); settings: GST-JMJD2A(1-420) H3K9me3 demethylation; at 6 µM (top of the series) unless noted;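 further: europium signal reports the dimethyl H3K9 product detected by antibody so inhibitors lower it; 0% = median of neutral control wells and -100% = median of positive control wells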

Activity change, negative = inhibition, inactive:
COC(C/C=C\[C@H](O)[C@H](C)OCc1ccccc1)OC 2.1%
Cn1c(=O)[nH]c(=O)c2c1nc(N1CCOCC1)n2CCc1ccccc1 -2.37%
COc1ccccc1C(=O)OCc1c(-c2ccccc2)ncc2ccccc12 -0.648%
OCc1ccc(-c2nn(Cc3ccccc3)c3ccccc23)o1 -1.29%
COc1ccc(OC)c(C2=NOC(C(=O)NCCN3CCOCC3)C2)c1 (configuration not stated) 3.92%
CC(=O)Nc1ccc(NC(=O)CSc2ncnn2-c2ccccc2)cc1 -3.98%
COc1ccc(OC)c(/C=N/NC(=O)CNC(=O)c2ccc(S(=O)(=O)N3CCOCC3)cc2)c1 -4.35%
CCC(=O)N1CCc2cc(Br)cc(S(=O)(=O)CC(=O)OC)c21 -2.94%
CCN(c1ccc(NC(=O)CCNC(=O)c2ccco2)cc1)C(C)C 1.4%
CC1CC(NC(=O)N(C)C)N(C)C(=O)N1 (configuration not stated) 2.56%
CC(CC(=O)Nc1cc([N+](=O)[O-])ccc1Cl)c1ccccc1 (configuration not stated) 4.4%
CCOC(=O)c1c(S(=O)(=O)NCC(=O)Nc2cccc(C)c2C)c(C)n(C)c1C 5.71%
CCCCCCC(=O)N1CCN(c2cc3c(cc2F)c(=O)c(C(=O)O)cn3CC)CC1 -2.15%
O=C(Nc1cccnc1)c1ccc2c(c1)C(=O)N(Cc1cccnc1)C2=O -1.63%
CCn1nnnc1SCC(=O)NCc1cccs1 5.59%
CCC(C)(C)NC(=O)C(c1cccn1C)N(Cc1ccc(OC)cc1)C(=O)Cn1nnc2ccccc21 (configuration not stated) 5.84%
CCOC(=O)[C@H]1[C@H]2COc3ccc(OC)cc3[C@@H]2N2C(=O)c3cc(C)ccc3NC(=O)[C@@]12C 7.75%
Cc1noc(C)c1NC(=O)Nc1cccc2c1O[C@H](CN(C)S(=O)(=O)c1cccs1)[C@@H](C)CN([C@H](C)CO)C2=O -2.83%
O=C1[C@@H]2[C@H](C(=O)N1O)[C@H]1C=C[C@@H]2C1 6.42%
CSc1nc(N)nc2c1ncn2CC(=O)N[C@H](CO)Cc1c[nH]c2ccccc12 -1.96%
Oc1cc(O)cc(/C=C/c2ccc(O)c(O)c2)c1 -0.168%
Cc1ccc(-c2csc3nc(C)n(-n4c(C)ccc4C)c(=O)c23)o1 -4.71%
Cc1ccc(OCc2nnnn2-c2ccccc2)cc1 4.18%
COc1cccc(C2c3[nH]c4ccccc4c3CCN2CCCn2cccn2)c1 (configuration not stated) -3.61%
CC(C)(C)OC(=O)NNC(=O)Nc1ccccc1C(F)(F)F -0.854%
Cc1ccc(C(C)C)c(Oc2nnnn2-c2ccccc2)c1 0.187%
O=C1CC2(CCN(C(=O)c3ccccc3Cl)CC2)Oc2ccccc21 -4.38%
Cc1cccc(CN2CCC(Oc3ccc(C(=O)N4CCCC4)cc3)CC2)n1 1.86%
Cc1nc2ccccn2c1C(=O)NCCCN1CCOCC1 -2.15%
Cc1cc(N2C(=O)C(=O)/C(=C(/O)c3ccc(F)cc3)C2c2cccc(Br)c2)no1 (configuration not stated) -0.821%
C#CCOCCOCCOCCNc1nc(N2CCN(C(=O)[C@H](CCC(=O)O)n3cc(CN)nn3)CC2)nc(N2CCN(C(=O)[C@H](CCCN=C(N)N)n3cc(C(N)[C@@H](C)CC)nn3)CC2)n1 (some centres not stated) 1.13%
Cc1ccc(CCNC(=O)C23C[C@H]4C[C@@H](C2)CC(n2nnc(C)n2)(C4)C3)cc1 -2.36%
CCCNC1=C(N(C(C)=O)c2cccc(F)c2)C(=O)c2ccccc2C1=O -4.23%
c1coc(CSCc2cn3cccnc3n2)c1 5.39%
C=C(C)COc1ccc(-c2n[nH]c(C)c2-c2ccccc2)c(O)c1 13.4%
CS(=O)(=O)c1ccccc1-c1nnc(NC(=O)c2ccc3ncsc3c2)o1 1.2%
COC(=O)C1=C(C)OC(N)=C(C#N)C1c1cc2cccc(C)c2nc1Cl (configuration not stated) 3.92%
NC(=O)CC(NC(=S)NCc1ccccc1)C(=O)O (configuration not stated) 0.543%
COc1ccc(S(=O)(=O)N2CC(O)CC2C(=O)OCc2nc3sc(C)c(C)c3c(=O)[nH]2)cc1 (configuration not stated) -4.05%
C=CCN(CC=C)Cc1c(O)ccc2c1oc(=O)c1ccccc12 3.31%
CCOC(=O)[C@H]1[C@H]2COc3ccc(C)cc3[C@@H]2N2C(=O)c3ccc(Cl)cc3NC(=O)[C@@]12C -4%
O=C(c1ccc2c(c1)OCO2)N1CCCN(C(=O)c2ccc3c(c2)OCO3)CC1 3.49%
N#Cc1ccc(CSc2ncnc3c2cnn3Cc2ccccc2)cc1 -2.66%
c1ccc2cc(CCO[C@H]3CCCCO3)ncc2c1 -1.12%
N#CC1=C(N)N2C(=C(C#N)C13CCCCC3)SC1CCCCC12O (configuration not stated) 0.652%
Cc1ccc(C(Sc2ccccc2)C(Cn2cncn2)C(=O)c2ccccc2)cc1 (configuration not stated) 0.915%
Cn1c(=O)[nH]c(=O)c2c1nc(SCC(=O)O)n2CCc1ccccc1 1.92%
CCCSc1nc(-c2ccccc2)cc(C(F)(F)F)c1C#N 1.49%
O=c1oc2ccccc2c(O)c1C=NCc1ccccn1 3.55%
Cn1cc(C(=O)N2CCCCC2)c(=O)c2cc(S(=O)(=O)N3CCCC3)ccc21 -13.4%
CCOC(=O)CCC(=O)NCc1ccc2c(c1)cc(C)n2C 13.1%
CN(C)CCCNC1=CC(=O)OC12CCCCC2 6.24%
Cc1ccc(-n2nc3c(N4CCC(C(=O)N5CCCCCC5)CC4)nnc(C)c3c2C)cc1 2.68%
Cc1nnc(N2C(=O)c3cccc4c([N+](=O)[O-])ccc(c34)C2=O)s1 -1.72%
O=C(COC(=O)c1cccs1)c1ccccc1 -1.5%
Oc1ccc(C2Nc3cccc4cccc(c34)N2)cc1 5.71%
O=C(O)c1cc2cc(Cl)ccc2oc1=O -4.41%
C[C@H](CO)N1C[C@H](C)[C@@H](CN(C)Cc2ccc3c(c2)OCO3)Oc2c(NC(=O)C3CCCCC3)cccc2C1=O -7.36%
Cc1occc1-c1nnc(SCC(=O)c2c[nH]c3ccccc23)n1C -3.2%
COc1cccc2c1nc(C)c1cc(C)oc12 1.66%
COc1ccc(-n2cc(C(=O)O)c3ccccc3c2=O)cc1 2.71%
COC(=O)[C@@H](N)Cc1ccc(O)c(O)c1 -7.2%
Cc1ccc(NC(=O)C2C3CCCC2C3c2ccccc2)cc1C (configuration not stated) -3.04%
Cn1nnc(NC(=O)CSc2ccc(Cl)cc2)n1 1.81%
NC(=S)Nc1ccc(Cl)cc1Cl 4.69%
COc1ccc(-c2ccc3oc(-c4ccsc4)cc(=O)c3c2)cn1 4.68%
CCCc1cc(=O)[nH]c(SCC(=O)Nc2cc(S(=O)(=O)N(CC)c3ccccc3)ccc2Cl)n1 -1.23%
COc1cccc(NC(=O)COC(=O)c2ccc(S(=O)(=O)NCc3ccco3)cc2)c1 1.97%
COc1ccc(OC)c(Nc2nnc(C)c(=O)[nH]2)c1 -3.21%
CCC(C)NC(=S)N1CCN(C)CC1 (configuration not stated) 1.71%
Cc1ccc2c(c1)N(CC(=O)NCC1CCCO1)C(=O)C(C(C)C)O2 (configuration not stated) 5%
Cc1cc(N2CCN(c3ccccc3)CC2)nc(-c2ccccc2)n1 -0.55%
CN(C(=O)c1ccc(Cl)c([N+](=O)[O-])c1)C1(C)CCS(=O)(=O)C1 (configuration not stated) 1.09%
O=c1c2ccccc2nc2c3ccccc3c(NCc3ccco3)nn12 3.39%
Cc1ccc(NC(=O)COC(=O)CCc2c[nH]c(=O)[nH]2)cc1 1.03%
N#Cc1c(N2CCCCC2)nc(N)c2c(N)nc(SCC(=O)O)cc12 0.063%
O=C(C/C=N/OCc1ccc(Cl)cc1Cl)c1ccccc1 6.27%
C[C@@]12C(=O)Nc3ccc(Cl)cc3C(=O)N1[C@H]1c3cc(Br)ccc3OC[C@@H]1[C@@H]2c1ccccc1 1.94%
CN(c1ccc(OCC(=O)N2CCCCC2)cc1)S(=O)(=O)c1cccs1 -7.23%
CCC(NS(=O)(=O)c1cccs1)c1ccc(C)cc1 (configuration not stated) 1.52%
Cc1cccc(C)c1N1C(=O)c2cccc([N+](=O)[O-])c2C1=O 2.35%
O=C(Nc1nc2c(s1)C(=O)CCC2)c1ccccc1 -2.57%
O=C(COc1ccc(Cl)cc1)NCCCn1ccnc1 1.24%
CCOC(=O)Cn1nc(C)c2c1CCCC2=O -1.59%
O=C(CCSCc1ccccc1F)NCCc1ccccc1 2.55%
Fc1cccc(/C=N/Nc2nc3ccccc3[nH]2)c1 0.443%
O=C(COC(=O)c1ccco1)NNC(=O)c1ccc(Cl)cc1 -1.66%
COc1c(Cl)cc(Cl)cc1/C=C/C(=O)c1ccc(NC(=O)c2cccs2)cc1 7.25%
Cc1nc(-c2ccc(C(=O)N3CCCC3)cc2)cs1 5.39%
CC(C)(C)OC(=O)C[C@@H]1C/C=C\C[C@H](CC(=O)N[C@H](CO)Cc2ccccc2)C(=O)N[C@@H](Cc2ccccc2)COC1=O 0.0527%
CC(C)(C)c1ccc(-c2csc(NNC3=NCCCCC3)n2)cc1 1.81%
Cc1onc(-c2c(F)cccc2Cl)c1C(=O)N1CCN(S(C)(=O)=O)CC1 5.59%

Four records picked at random from the list so far:
Activity change, negative = inhibition, inactive:
CC(C)(C)c1ccc(-c2csc(NNC3=NCCCCC3)n2)cc1 1.81%
O=C1CC2(CCN(C(=O)c3ccccc3Cl)CC2)Oc2ccccc21 -4.38%
O=C1[C@@H]2[C@H](C(=O)N1O)[C@H]1C=C[C@@H]2C1 6.42%
N#Cc1c(N2CCCCC2)nc(N)c2c(N)nc(SCC(=O)O)cc12 0.063%

Part of the list above in order of molar mass, descending.
Activity change, negative = inhibition, inactive:
COc1ccc(S(=O)(=O)N2CC(O)CC2C(=O)OCc2nc3sc(C)c(C)c3c(=O)[nH]2)cc1 (configuration not stated) -4.05%
Cc1ccc(CCNC(=O)C23C[C@H]4C[C@@H](C2)CC(n2nnc(C)n2)(C4)C3)cc1 -2.36%
CCN(c1ccc(NC(=O)CCNC(=O)c2ccco2)cc1)C(C)C 1.4%
